The values below come from doi:10.1101/723940.

Protein sequences, listed by entry. Tags and fused reporters are not part of them.
UniProt Q9Y696: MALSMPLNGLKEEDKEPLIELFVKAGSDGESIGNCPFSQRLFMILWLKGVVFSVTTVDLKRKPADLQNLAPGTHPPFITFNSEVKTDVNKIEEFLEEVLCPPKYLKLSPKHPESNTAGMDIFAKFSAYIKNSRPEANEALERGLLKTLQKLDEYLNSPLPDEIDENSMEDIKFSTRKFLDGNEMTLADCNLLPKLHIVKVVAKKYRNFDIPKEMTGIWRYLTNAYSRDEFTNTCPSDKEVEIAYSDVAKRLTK
UniProt Q9P289: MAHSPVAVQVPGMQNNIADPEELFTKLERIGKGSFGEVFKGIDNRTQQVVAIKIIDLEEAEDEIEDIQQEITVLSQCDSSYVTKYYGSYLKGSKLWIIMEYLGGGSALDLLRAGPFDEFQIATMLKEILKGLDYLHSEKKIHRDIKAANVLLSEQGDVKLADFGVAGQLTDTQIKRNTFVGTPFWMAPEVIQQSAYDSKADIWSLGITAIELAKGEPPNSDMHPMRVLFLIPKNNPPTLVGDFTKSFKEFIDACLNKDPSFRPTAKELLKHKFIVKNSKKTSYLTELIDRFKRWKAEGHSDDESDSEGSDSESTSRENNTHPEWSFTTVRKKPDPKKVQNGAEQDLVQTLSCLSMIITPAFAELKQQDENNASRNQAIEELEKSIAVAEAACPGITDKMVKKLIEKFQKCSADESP

These are yes or no findings as the source states them, for the method shown. In cells and extracts the contact can be indirect. These calls come from enrichment with a bait or labelling near it, and not all partners need be listed.

The assay has as its target GFP-CLIC4 (pLVX:GFP-CLIC4) (UniProt Q9Y696). As to the kind of experiment: affinity purification with mass spectrometry.

For “MST4 kinase (from UniProt Q9P289 1-416) (enzyme)”, the binding result is “binds”.
